Data as given in PubChem BioAssay AID1259259 (Sanger Institute, 2017)
Test: 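Kinase silencing that lowers colorectal cancer cell viability alone or with drugs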 (primary screen). System: SW1463 human colorectal cancer cells. Reagent: siRNA pool against human genes. Challenge: DMSO vehicle, or one anchor drug: BYL719 at 1 µM, cetuximab at 5 µg/ml, or trametinib at 10 nM. Read-out: 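Viability as fraction of control pool 2 (non-targeting), replicate mean; knock-down robust z-score without any drug; synergy score averaged for each anchor drug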. Reading the numbers: robust z-score, knock-down alone: higher = more viable cells after knock-down; viability, knock-down alone: higher = more viable cells; synergy score with BYL719 and synergy score with cetuximab and synergy score with trametinib: higher = stronger synergy (synthetic lethal) with drug. Call rule: 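a robust z-score under -3 for knock-down with no drug marks the gene as essential, meaning viability loss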. Calls: active = essential: viability loss from knock-down alone; inactive = no change from knock-down alone.
Shown is a random part of 794 reagents tested. 9 of them (1.1%) were called active. 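Calls rest on knock-down alone, not drug synergy; viability values seem capped at 1.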 Unmarked entries are inactive. The record does not give: the amount of reagent, the time to read-out.

no.	target gene	PubChem SID	robust z-score, knock-down alone	viability, knock-down alone (fraction of control)	synergy score with BYL719	synergy score with cetuximab	synergy score with trametinib
1	PRKCD (GeneID 5580)	SID56478673	0.108	0.935	0.101	0.191	-0.00149
2	PRKAG3 (GeneID 53632)	SID56479232	-2.33	0.778	0.0784	0.216	-0.0128
3	FGFR2 (GeneID 2263)	SID152155469	0.662	0.97	-0.0217	-0.0199	-0.0615
4	KCNH2 (GeneID 3757)	SID135621164	-1.06	0.86	0.0736	0.0824	-0.0536
5	PDK1 (GeneID 5163)	SID56478951	0.659	0.97	0.106	-0.00535	0.17
6	MAP2K5 (GeneID 5607)	SID135620764	1.13	1	0.0048	-0.0272	-0.0326
7	AKAP9 (GeneID 10142)	SID134321301	0.463	0.957	-0.00201	0.0334	-0.0739
8	EFNA3 (GeneID 1944)	SID135623696	-0.27	0.91	-0.0897	-0.105	-0.119
9	TPD52L3 (GeneID 89882)	SID56479192	-0.149	0.918	-0.0476	0.0539	-0.0698
10	MVK (GeneID 4598)	SID56479115	-0.291	0.909	0.0245	-0.116	0.0967
11	PDXK (GeneID 8566)	SID56478979	1.13	1	0.028	-0.0272	-0.0326
12	PXK (GeneID 54899)	SID152149443	0.697	0.972	0.118	0.265	0.204
13	SYNCRIP (GeneID 10492)	SID134320219	-0.847	0.873	0.0116	-0.00453	0.084
14	PIKFYVE (GeneID 200576)	SID152154410	0.71	0.973	-0.0268	0.173	-0.0585
15	CDK16 (GeneID 5127)	SID152150805	0.432	0.955	-0.00717	0.0529	0.137
16	PANK4 (GeneID 55229)	SID56479123	-3.76 (active)	0.686	-0.098	-0.00832	-0.195
17	TRPM7 (GeneID 54822)	SID152149681	-1.03	0.862	-0.0818	0.0418	0.0406
18	STK26 (GeneID 51765)	SID152154531	0.124	0.936	0.0498	0.0223	0.0124
19	TRIO (GeneID 7204)	SID56478974	0.722	0.974	0.0147	0.1	0.0456
20	PINK1 (GeneID 65018)	SID152149500	0.396	0.953	0.108	0.0356	0.175
21	MAP3K10 (GeneID 4294)	SID56478692	0.309	0.947	-0.0525	0.192	0.0608
22	ERN2 (GeneID 10595)	SID135620900	1.02	0.993	0.00138	0.0862	0.108
23	IKBKB (GeneID 3551)	SID152150353	-0.111	0.921	0.0069	-0.0199	0.0125
24	WNK4 (GeneID 65266)	SID56478961	-0.723	0.881	-0.119	-0.143	-0.0873
25	SCYL1 (GeneID 57410)	SID152146872	1.13	1	0.051	-0.0272	-0.0326
26	ERBB2 (GeneID 2064)	SID152153302	0.195	0.94	-0.0598	0.151	-0.0212
27	CDK12 (GeneID 51755)	SID152151382	0.489	0.959	-0.0377	0.0568	-0.0151
28	RNASEL (GeneID 6041)	SID56478962	1.13	1	0.0215	-0.0272	-0.0326
29	DUSP21 (GeneID 63904)	SID134312829	-1.23	0.849	-0.126	-0.169	-0.0691
30	NPR2 (GeneID 4882)	SID152151652	0.655	0.97	-0.00209	0.043	0.15
31	COQ8B (GeneID 79934)	SID56478994	-0.425	0.9	0.0353	-0.0738	0.075
32	RELA (GeneID 5970)	SID135620694	0.598	0.966	-0.0216	0.294	0.0182
33	COASY (GeneID 80347)	SID56479117	-4.25 (active)	0.655	-0.015	0.0114	0.00142
34	MYLK2 (GeneID 85366)	SID56479029	-2.01	0.799	0.06	0.15	0.163

Called active, among the entries above:
target gene	PubChem SID	robust z-score, knock-down alone	viability, knock-down alone (fraction of control)	synergy score with BYL719	synergy score with cetuximab	synergy score with trametinib
PANK4 (GeneID 55229)	SID56479123	-3.76 (active)	0.686	-0.098	-0.00832	-0.195
COASY (GeneID 80347)	SID56479117	-4.25 (active)	0.655	-0.015	0.0114	0.00142
